Measured values: article PMC10878145

Key:
[1] = target: PDK2; assay: co-IP; exogenous co-IP of transfected proteins in HEK-293T cells; lysis buffer 150 mM NaCl, 150 mM Tris, 0.4% NP-40, pH 7.4; antibody 4-6 hrs at 4 °C, protein A magnetic beads 2 hrs at 4 °C; immunoblot; some experiments quantitative with UPP1-WT or UPP1-R94A co-overexpressed, one with SC79
[2] = target: AKT-HA (AKT-FL, wild-type AKT) (human); assay: as above

B1: UPP1-R94A (mutant UPP1) (enzyme, UniProt Q16831 1-310)
chain: MAATGANAEKAESHNDCPVRLLNPNIAKMKEDILYHFNLTTSRHNFPALFGDVKFVCVGGSPSRMKAFIRCVGAELGLDCPGRDYPNICAGTDAYAMYKVGPVLSVSHGMGIPSISIMLHELIKLLYYARCSNVTIIRIGTSGGIGLEPGTVVITEQAVDTCFKAEFEQIVLGKRVIRKTDLNKKLVQELLLCSAELSEFTTVVGNTMCTLDFYEGQGRLDGALCSYTEKDKQAYLEAAYAAGVRNIEMESSVFAAMCSACGLQAAVVCVTLLNRLEGDQISSPRNVLSEYQQRPQRLVSYFIKKKLSKA
binding [1]: binds
binding [2]: no binding

No constants are given. Whether binding was seen depends on the method and setting. In cells and extracts the contact can be indirect. For some assays here: Binding calls can cover weak binding; strength is not graded here.
